The list shows a part of the results. Further columns of the screen follow, without active or inactive calls. Compounds called inactive in the main read-out are mostly missing here. Potencies come from curve fits of mixed quality, noted in brackets.
Assay: qHTS Assay for Lipid Storage Modulators in Drosophila S3 Cells;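 as to cell number change: cells counted by Cell Tracker Red CMTPX staining in the red channel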
Conditions: BODIPY lipid droplet fluorescence, 18-24 h; for cell number change: measured here: cell count max response, cells fed with added oleic acid
How it was run: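 Laser-scanning cytometry quantifies lipid droplet accumulation (500–530 nm total intensity; droplet/cell object ratio) in oleic acid-fed (400 uM added) Drosophila S3 cells treated with a concentration series. 20 uM Triacsin C defined 100% inhibition.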

[1] = measured here: cell number channel AC50, cells fed with added oleic acid
[2] = measured here: lipid fluorescence (Fed channel) AC50, cells fed with added oleic acid

Row | SMILES | cell number change | AC50 [1] | AC50 [2]
1 | CCOC(=O)c1cccnc1SCC(=O)N(C)c1ccccc1 | 34.6% | 9.2 µM [rising, single point] | 18.4 µM [rising, partial curve]
2 | N#CCN(C(=O)COC(=O)CCCNC(=O)c1ccc(Cl)cc1)c1ccccc1 | 23.1% |  | 7.31 µM [rising, partial curve]
3 | CCCCCCCC(=O)N/N=C(\C)c1ccc(O)cc1O | -35.2% | 5.8 µM [falling, full curve] | 5.8 µM [falling, full curve]
4 | Cc1cccc(C)c1Nc1c(-c2ccc(N3CCOCC3)cc2)nc2cnccn12 |  | 0.411 µM [rising, full curve] | 
5 | COc1ccccc1N1CCN(C(=O)CSc2nnc(NC(=O)C3CC3)s2)CC1 | 8.68% |  | 23.1 µM [rising, single point]
6 | CN(C)C(=O)CSc1nc2ccccc2c(=O)[nH]1 | 12.3% |  | 0.58 µM [rising, single point]
7 | CCOc1ccc(C(=O)NCC(=O)OCCCC(=O)c2ccc(F)cc2)cc1OCC | -34.6% | 16.4 µM [falling, single point] | 29.1 µM [falling, single point]
8 | C#CCOCCOCCOCCNc1nc(N2CCN(C(=O)[C@H]([C@@H](C)CC)n3cc([C@@H](N)Cc4ccc(O)cc4)nn3)CC2)nc(N2CCN(C(=O)[C@H](Cc3cc4ccccc4[nH]3)n3cc([C@@H](N)CC(C)C)nn3)CC2)n1 | -49.5% | 18.4 µM [falling, partial curve] | 2.31 µM [falling, single point]
9 | C=CCN1C(=Nc2cccnc2)SCC1(O)c1ccc(C)cc1 (configuration not stated) | -22.6% |  | 8.2 µM [falling, partial curve, poor fit]
10 | O=C(CSc1nc2ccccc2c(=O)n1CC1CCCO1)Nc1ccc(F)cc1 (configuration not stated) | -6.96% |  | 
11 | CCCCCCc1cc2cc(S(=O)(=O)c3ccc(C)cc3)c(=O)oc2cc1O | -38% | 18.4 µM [falling, single point] | 
12 | Cc1ccc(/C=C(\NC(=O)c2ccccc2)C(=O)N2CCCCC2)cc1 | 14.4% |  | 4.11 µM [rising, single point]
13 | Cc1c(C(=O)Nc2ccc(S(=O)(=O)N3CCOCC3)cc2)cccc1[N+](=O)[O-] | -13.1% |  | 2.31 µM [falling, partial curve, poor fit]
14 | CCN(CC)S(=O)(=O)c1ccc(N2CCOCC2)c(NC(=O)C(C)(C)C)c1 | 3.73% |  | 
15 | CC(=O)c1c(C)n(C)c2ccc(O)cc12 | 73.3% | 18.4 µM [rising, single point] | 
16 | CCCc1nc2c(nnn2Cc2ccccc2Cl)c(=O)[nH]1 | 21.4% |  | 25.9 µM [rising, partial curve, poor fit]
17 | CCOC(=O)C1(CC)CC(CSc2nc3ccccc3[nH]2)OC1=O (configuration not stated) | 14.1% | 2.91 µM [rising, single point] | 
18 | Cc1ccc(CNC(=O)C2CCN(S(=O)(=O)c3c(C)noc3/C=C/c3ccco3)CC2)cc1 | -2.63% |  | 
19 | C=CCOc1ccc(C2NC(=O)c3ccccc3O2)cc1 (configuration not stated) | 27.7% |  | 
20 | CC(=O)c1cccc(NC(=O)CC2CCCC2)c1 | 14.8% |  | 

Row | SMILES | cell number change | AC50 [1] | AC50 [2]
21 | CCCCNC(=O)/C(=C/c1ccccc1)NC(C)=O | 7.45% |  | 29.1 µM [falling, single point]
22 | Cc1cc2c3ccccc3ncn2n1 | 10.4% |  | 1.16 µM [rising, full curve]
23 | CCCCn1c(N)c(N(CC)C(=O)c2cc(Br)ccc2Cl)c(=O)[nH]c1=O | -6.42% | 0.164 µM [falling, full curve, poor fit] | 
24 | Cc1cc(OC(=O)c2ccccc2Cl)cc(=O)n1C |  | 6.51 µM [rising, single point] | 
25 | COC(=O)c1ccc(OCC2c3cc(OC)c(OC)cc3CCN2C(=O)c2ccco2)cc1 (configuration not stated) | -4.46% | 6.51 µM [falling, single point] | 
26 | COc1cccc(C(=O)N2CCCC(CCC(=O)NCc3ccc(F)c(F)c3)C2)c1 (configuration not stated) | -55.1% | 16.4 µM [falling, partial curve] | 
27 | Cc1nnc(N2C(=O)C(=O)/C(=C(/O)c3ccc4c(c3)OCCO4)C2c2ccc(F)cc2)s1 (configuration not stated) | -2.14% |  | 0.206 µM [rising, full curve]
28 | Cc1ccc(NC(=O)CN2CCN(C)CC2)cc1S(=O)(=O)N1CCOCC1 | 30.4% | 23.1 µM [rising, single point] | 6.51 µM [falling, single point]
29 | O=C(NC(=S)NC1CCS(=O)(=O)C1)c1cccc([N+](=O)[O-])c1 (configuration not stated) | -12.4% |  | 29.1 µM [falling, single point]
30 | O=C(Nc1ccc2c(c1)OCO2)C1CC(=O)N(c2ccc(F)cc2)C1 (configuration not stated) | 22.2% |  | 3.66 µM [falling, partial curve, poor fit]
31 | Cc1oc2cc([N+](=O)[O-])c(O)c([N+](=O)[O-])c2c1C(=O)c1ccc(Br)cc1 | -3.05% | 6.51 µM [falling, single point] | 6.51 µM [falling, single point]
32 | CC(C)c1nc(-c2c(N)n(C)c(=O)n(C)c2=O)sc1C(=O)C(C)(C)C |  | 0.461 µM [rising, full curve] | 
33 | Nc1nc(NCc2ccco2)nc(Nc2ccccc2)c1[N+](=O)[O-] | -51.8% |  | 0.146 µM [falling, full curve, poor fit]
34 | O=C(COC(=O)Cc1cccc(C(F)(F)F)c1)NC1CCS(=O)(=O)C1 (configuration not stated) | -27.9% |  | 25.9 µM [falling, single point]
35 | COc1cc(OC)cc(-c2c(C#Cc3ccsc3)c3cc(-c4ccc5c(c4)OCCO5)ccc3n2C)c1 | -5.88% |  | 0.58 µM [rising, partial curve]
36 | CCCCn1c(=O)[nH]c(=O)c2c1nc(-c1ccccc1OC(F)F)n2C | -1.39% |  | 
37 | CCCCn1c(N)c(N(CCC(C)C)C(=O)c2ccc([N+](=O)[O-])o2)c(=O)[nH]c1=O | 5.11% |  | 20.6 µM [falling, single point]
38 | Cc1ccc(-c2cn(CCN)c(-c3ccncc3)n2)cc1 | 16.9% | 6.51 µM [falling, single point] | 
39 | Cc1nccn1CC(=O)N/N=C/c1cccc(O)c1 |  | 0.00411 µM [falling, full curve, poor fit] | 
40 | O=C(NNc1ccc(Cl)cc1)C1CCC1 | -36.9% | 0.461 µM [falling, full curve] | 0.411 µM [falling, full curve, poor fit]

Filtered by structure, the entries above containing a carbonyl joined to an NH by a bond outside any ring
Row | SMILES | cell number change | AC50 [1] | AC50 [2]
2 | N#CCN(C(=O)COC(=O)CCCNC(=O)c1ccc(Cl)cc1)c1ccccc1 | 23.1% |  | 7.31 µM [rising, partial curve]
3 | CCCCCCCC(=O)N/N=C(\C)c1ccc(O)cc1O | -35.2% | 5.8 µM [falling, full curve] | 5.8 µM [falling, full curve]
5 | COc1ccccc1N1CCN(C(=O)CSc2nnc(NC(=O)C3CC3)s2)CC1 | 8.68% |  | 23.1 µM [rising, single point]
7 | CCOc1ccc(C(=O)NCC(=O)OCCCC(=O)c2ccc(F)cc2)cc1OCC | -34.6% | 16.4 µM [falling, single point] | 29.1 µM [falling, single point]
10 | O=C(CSc1nc2ccccc2c(=O)n1CC1CCCO1)Nc1ccc(F)cc1 (configuration not stated) | -6.96% |  | 
12 | Cc1ccc(/C=C(\NC(=O)c2ccccc2)C(=O)N2CCCCC2)cc1 | 14.4% |  | 4.11 µM [rising, single point]
13 | Cc1c(C(=O)Nc2ccc(S(=O)(=O)N3CCOCC3)cc2)cccc1[N+](=O)[O-] | -13.1% |  | 2.31 µM [falling, partial curve, poor fit]
14 | CCN(CC)S(=O)(=O)c1ccc(N2CCOCC2)c(NC(=O)C(C)(C)C)c1 | 3.73% |  | 
18 | Cc1ccc(CNC(=O)C2CCN(S(=O)(=O)c3c(C)noc3/C=C/c3ccco3)CC2)cc1 | -2.63% |  | 
20 | CC(=O)c1cccc(NC(=O)CC2CCCC2)c1 | 14.8% |  | 
21 | CCCCNC(=O)/C(=C/c1ccccc1)NC(C)=O | 7.45% |  | 29.1 µM [falling, single point]
26 | COc1cccc(C(=O)N2CCCC(CCC(=O)NCc3ccc(F)c(F)c3)C2)c1 (configuration not stated) | -55.1% | 16.4 µM [falling, partial curve] | 
28 | Cc1ccc(NC(=O)CN2CCN(C)CC2)cc1S(=O)(=O)N1CCOCC1 | 30.4% | 23.1 µM [rising, single point] | 6.51 µM [falling, single point]
29 | O=C(NC(=S)NC1CCS(=O)(=O)C1)c1cccc([N+](=O)[O-])c1 (configuration not stated) | -12.4% |  | 29.1 µM [falling, single point]
30 | O=C(Nc1ccc2c(c1)OCO2)C1CC(=O)N(c2ccc(F)cc2)C1 (configuration not stated) | 22.2% |  | 3.66 µM [falling, partial curve, poor fit]
34 | O=C(COC(=O)Cc1cccc(C(F)(F)F)c1)NC1CCS(=O)(=O)C1 (configuration not stated) | -27.9% |  | 25.9 µM [falling, single point]
39 | Cc1nccn1CC(=O)N/N=C/c1cccc(O)c1 |  | 0.00411 µM [falling, full curve, poor fit] | 
40 | O=C(NNc1ccc(Cl)cc1)C1CCC1 | -36.9% | 0.461 µM [falling, full curve] | 0.411 µM [falling, full curve, poor fit]

Going on with the list.

Row | SMILES | cell number change | AC50 [1] | AC50 [2]
41 | O=C(OCC(=O)N1CCN(C(=O)c2ccco2)CC1)c1ccccc1OCc1ccc(Cl)cc1 | 9.21% |  | 29.1 µM [rising, single point]
42 | Cc1nc2ccccc2c(=O)n1CCc1ccc(O)cc1 | -17.6% |  | 
43 | COC(=O)CC1C(=O)NCCN1C(=S)Nc1cccc(C)c1 (configuration not stated) | -29.1% | 0.651 µM [falling, full curve, poor fit] | 6.51 µM [falling, single point]
44 | CC1=C(C#N)C(Nc2cccc(C)n2)(C(F)(F)F)C(=O)N1 (configuration not stated) | 0.643% |  | 1.46 µM [falling, partial curve]
45 | O=C(Cc1cccc2ccccc12)Nc1ccc2oc(-c3ccccc3)nc2c1 |  |  | 2.31 µM [rising, partial curve]
46 | COC(=O)/C=C1\C(=O)N(c2nc3ccc(OC)cc3s2)C(=S)N1c1ccc(F)cc1 | -83% | 29.1 µM [falling, single point] | 29.1 µM [falling, partial curve, poor fit]
47 | O=C(O)c1cccc(N2C(=O)C3CC=C(Cl)CC3C2=O)c1 (configuration not stated) | 11% |  | 29.1 µM [rising, single point]
48 | CC(OC(=O)c1cccc(N2C(=O)c3ccccc3C2=O)c1)C(=O)Nc1ccc(N(C)C)cc1 (configuration not stated) | -15.6% | 0.116 µM [rising, full curve, poor fit] | 0.259 µM [rising, full curve, poor fit]
49 | CCCC(=O)N(Cc1cc2cc(C)ccc2[nH]c1=O)c1ccccc1OC | 18.2% |  | 18.4 µM [rising, single point]
50 | O=C(Nc1ccccc1)c1ccc(Br)c(S(=O)(=O)Nc2cccnc2)c1 | -13.1% |  | 20.6 µM [rising, partial curve]
51 | NC(=O)Cn1nc([N+](=O)[O-])nc1Oc1ccccc1C(=O)N1CCOCC1 |  |  | 29.1 µM [falling, single point]
52 | CC1Cc2ccccc2N1C(=O)COC(=O)c1ccc(Br)o1 (configuration not stated) | 32.3% | 29.1 µM [rising, single point] | 
53 | CCCCOC(=O)NC1CCS(=O)(=O)C1 (configuration not stated) | 12.2% |  | 
54 | Cc1c(Cc2ccccc2)c(=O)oc2cc(OCC(=O)NCc3ccccn3)ccc12 | -10.7% |  | 
55 | COc1ccccc1CCNC(=O)c1cccc(S(=O)(=O)NCc2ccccc2)c1 | 39.3% | 1.03 µM [rising, partial curve, poor fit] | 3.66 µM [rising, partial curve, poor fit]
56 | COc1ccc(CN(CC(=O)NCCc2ccccc2)C(=O)CCC(=O)Nc2cc(C)ccn2)cc1 | 24.4% | 0.651 µM [rising, full curve, poor fit] | 29.1 µM [falling, single point]
57 | CC(Cc1ccccc1)NC(=O)CSc1nc2nc3c(cc2c(=O)n1-c1ccccc1)COC(C)(C)C3 (configuration not stated) | -5.2% |  | 
58 | Cc1ccc(N2C(=O)C3C4C=CC(C4)C3C2=O)cc1C (configuration not stated) | -6.42% |  | 
59 | O=C(c1cnn2c(C(F)(F)F)cc(-c3cccs3)nc12)N1CCCC1 | 26.5% |  | 
